At least one compound was matched to its structure with a doubt left.
Columns and labels:
[1] = biological target: T1, human S1P receptor EDG-1 (S1P1) (Homo sapiens, UniProt P21453); experiment: S1P receptor profiling, GTP[γ-35S] binding SPA, S1P1; type: biochemical
T1 construct: expressed in transfected cells
Protocol: (§1) Sphingosine-1-phosphate (S1P) Receptor Profiling
(§2) Agonist activities of compounds are tested on the human SIP receptors EDG-1 (S1P1), EDG-3 (S1P3), EDG-5 (S1P2), EDG-6 (S1P4) and EDG-8 (S1P5). […] The assay technology used is SPA (scintillation proximity based assay). Briefly, DMSO dissolved compounds are serially diluted and added to SPA-bead (Amersham-Pharmacia) immobilised S1P receptor expressing membrane protein (10-20 μg/well) in the presence of 50 mM Hepes, 100 mM NaCl, 10 mM MgCl2, 10 μM GDP, 0.1% fat free BSA and 0.2 nM GTP [γ-^35S] (1200 Ci/mmol). After incubation in 96 well microtiterplates at RT for 120 min, unbound GTP [γ-^35S] is separated by a centrifugation step. Luminescence of SPA beads triggered by membrane bound GTP [γ-^35S] is quantified with a TOPcount plate reader (Packard). EC50s are calculated using standard curve fitting software.

Amino acid sequences for entries named in this document (tags omitted). A change or cut given only in a name is not applied to a line headed by its entry.
UniProt P21453, whole entry: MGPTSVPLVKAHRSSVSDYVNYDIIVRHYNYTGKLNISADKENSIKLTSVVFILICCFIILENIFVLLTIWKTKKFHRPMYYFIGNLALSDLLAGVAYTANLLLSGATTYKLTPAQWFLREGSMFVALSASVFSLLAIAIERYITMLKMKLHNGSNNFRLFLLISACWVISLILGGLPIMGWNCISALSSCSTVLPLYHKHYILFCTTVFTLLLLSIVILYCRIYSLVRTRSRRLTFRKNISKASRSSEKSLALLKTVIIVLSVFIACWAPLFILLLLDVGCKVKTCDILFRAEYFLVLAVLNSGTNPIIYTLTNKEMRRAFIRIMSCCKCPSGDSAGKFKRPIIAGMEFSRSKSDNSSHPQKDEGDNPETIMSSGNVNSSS
UniProt Q9H228: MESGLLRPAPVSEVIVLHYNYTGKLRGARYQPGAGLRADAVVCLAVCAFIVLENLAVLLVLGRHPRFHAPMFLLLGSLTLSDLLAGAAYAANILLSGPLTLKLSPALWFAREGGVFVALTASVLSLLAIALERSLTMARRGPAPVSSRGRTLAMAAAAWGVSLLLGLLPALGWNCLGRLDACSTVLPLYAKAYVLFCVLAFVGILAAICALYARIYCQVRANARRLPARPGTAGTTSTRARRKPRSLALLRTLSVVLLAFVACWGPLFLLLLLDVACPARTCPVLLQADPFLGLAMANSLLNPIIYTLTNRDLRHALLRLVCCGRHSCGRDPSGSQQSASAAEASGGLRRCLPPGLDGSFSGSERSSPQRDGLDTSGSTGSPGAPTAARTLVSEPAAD

[2] = biological target: T2, human S1P receptor EDG-8 (S1P5) (Homo sapiens, UniProt Q9H228); experiment: S1P receptor profiling, GTP[γ-35S] binding SPA, S1P5; type: biochemical; conditions: column beside S1P5 EC50
T2 construct: expressed in transfected cells
Protocol: as §1, §2

CCOc1ccc(CCOc2c(Cl)cc(CC[C@@](C)(N)COP(=O)(O)O)cc2OC)cc1 [Example 10, Phosphoric acid mono-((R)-2-amino-4-{3-chloro-4-[2-(4-ethoxy-phenyl)-ethoxy]-5-methoxy-phenyl}-2-methyl-butyl)ester]
S1P1 mode of action [1]: Agon.
S1P5 mode of action [2]: Agon.

From patent US7696184B2, “Amino-propanol derivatives as sphingosine-1-phosphate receptor modulator” (Novartis AG, priority 2003, dated 2010)
